# From PubChem BioAssay AID493014 (National Center for Advancing Translational Sciences (NCATS), 2011)
# Hit rate of the full screen: of about 340,000 compounds, about 170 (0.05%) were called active. Inconclusive results, whose numbers are uncertain, are shown with a selection of clear calls. Calls follow the shape of the dose curve; as a rule, active = well fitted inhibition curve with a large enough effect in the signal ratio, with a control signal flat (not every such curve was filed as active); inconclusive = small, poorly fitted or top-dose-only effect, or effect the other way, or a change in a side signal; inactive = flat fitted curve, though single readings scatter; the % refers to the signal ratio. Potencies of inconclusive entries are doubtful fits and often do not repeat.
# Experiment: qHTS Assay to Find Inhibitors of Chronic Active B-Cell Receptor Signaling;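 as to activity change, negative = inhibition: plate controls were basal doxycycline-induced cells for no effect and cells given 10 µM MG132 for full effect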
# Details: ABC-DLBCL IkBa-CBG/CBR reporter, luminescence ratio (green luciferase fused to IkBa over red control in TMD8 lymphoma cells), 4 h; activity change, negative = inhibition: at 46.1 µM (top of the series)
# Outline: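 Doxycycline induced both beetle luciferases in TMD8 lymphoma cells; IKK-driven degradation limits the IkappaBalpha-fused green signal, while red luminescence normalises for cell number and nonspecific effects. Compounds tested up to 46 uM, 4 hrs.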
# Potency is read from the fitted curve at half-maximal effect.
Structure (SMILES),"activity change, negative = inhibition",Potency
CC(=O)c1ccc(NS(=O)(=O)c2ccc(-c3cnc(C4CC4)o3)cc2)cc1,inconclusive: 1.8%,–
Cc1ccc(Cn2nnnc2CN2CCC(O)(c3ccc(F)cc3)CC2)cc1,inconclusive: 0.945%,–
Cc1[nH][nH]c(=O)c1C(c1c(C)[nH][nH]c1=O)c1cn(C)c2ccccc12,–,"inconclusive: 0.891 µM [falling, full curve, poor fit]"
O=C(COC(=O)C1CCN(S(=O)(=O)c2cccs2)CC1)NCc1ccc(F)cc1,inactive,–
CCC1CCCCN1S(=O)(=O)c1cc(C(=O)Nc2ccc(C)c(F)c2)ccc1F (centres undefined),inconclusive: 24.9%,–
N#Cc1ccc2c(c1)C[C@]1(CCCCN3C(=O)c4ccccc4C3=O)Oc3c(c(=O)oc4ccc(F)cc34)C2O1,–,"inconclusive: 3.16 µM [rising, partial curve, poor fit]"
COc1cc(NC(=O)Cn2c(=O)n(CC3CCCO3)c(=O)c3ccccc32)cc(OC)c1 (centres undefined),inconclusive: -12.4%,–
Cc1ccc(-n2ncc(C(=O)Nc3cc(Cl)cc(Cl)c3)c2C2CCNCC2)cc1C,–,"inconclusive: 35.5 µM [falling, single point]"
Cc1cc(C)nc(/N=C(\N)Nc2ccc(C(C)C)cc2)n1,inactive,–
Cc1cccc(C(=O)N[C@H](C(=O)Nc2cccc(S(=O)(=O)N3CCCC3)c2)C(C)C)c1,inconclusive: -10.4%,–
O=C(CSc1nnc(-c2ccccc2)o1)Nc1ccccc1F,–,"inconclusive: 5.8 µM [falling, partial curve]"
COc1ccc(N(CC(=O)N2CCN(Cc3ccc4c(c3)OCO4)CC2)S(=O)(=O)c2ccc(F)cc2)cc1,inconclusive: 3.42%,–
CC(C)COc1ccc(-c2nn(-c3ccccc3)cc2C(=O)Nc2nccs2)cc1,–,"inconclusive: 10.3 µM [rising, partial curve, poor fit]"
O=C(CS(=O)(=O)c1ccc(Cl)c(Cl)c1)Nc1ccccc1Cl,inconclusive: 16.5%,–
Cc1cc(/C=N/NC(N)=S)c(C)n1-c1ccc(Br)cc1,–,"inconclusive: 35.5 µM [falling, single point]"
Cc1cc(C)nc(SCc2nnc(SCC(=O)Nc3ncc(C)s3)n2Cc2ccco2)n1,–,"inconclusive: 5.8 µM [rising, partial curve, poor fit]"
Nc1ccc2nc(-c3ccc(-c4nc5ccc(N)cc5[nH]4)cc3)[nH]c2c1,inactive,–
COc1ccc(C(=O)COC(=O)C2CCCN2C(=O)C23CC4CC(CC(C4)C2)C3)cc1 (centres undefined),inconclusive: -9.2%,–
O=C(c1ccc(Cl)c(S(=O)(=O)N2CCCC2)c1)N1CCN(c2ccccc2)CC1,inactive,–
CN(C)c1ccc(/C=C2/SC(=O)N(CCN=C3NS(=O)(=O)c4ccccc43)C2=O)cc1,inactive,–
O=C(CN1CCN(Cc2ccc(F)cc2Cl)C1=O)NCc1cccs1,inconclusive: -1.1%,–
O=[N+]([O-])c1ccccc1OCCCN1CCOCC1,inconclusive: 8.04%,–
O=C(COc1ccc2c(c1)OCO2)Nc1nncs1,–,"inconclusive: 12.6 µM [falling, partial curve]"
CC1=CC(C)C(C(=O)O)C(C(=O)N2CCN(C)CC2)C1 (centres undefined),inconclusive: 6.47%,–
CCCNC(=O)c1ccccc1NC(=O)c1ccc2c(c1)NC(=O)C(C)S2 (centres undefined),–,"inconclusive: 17.8 µM [falling, partial curve]"
CC(=O)C1=C(C)OC(N)=C(C#N)C1c1cc([N+](=O)[O-])ccc1Cl (centres undefined),–,"inconclusive: 25.1 µM [cytotoxic, partial curve]"
O=C(CSCc1ccc(C(=O)O)cc1)Nc1ccc2ccccc2c1,inconclusive: -28.3%,–

# Among those listed so far, these have a COOH group:
Structure (SMILES),"activity change, negative = inhibition",Potency
CC1=CC(C)C(C(=O)O)C(C(=O)N2CCN(C)CC2)C1 (centres undefined),inconclusive: 6.47%,–
O=C(CSCc1ccc(C(=O)O)cc1)Nc1ccc2ccccc2c1,inconclusive: -28.3%,–

# Continuation:

Structure (SMILES),"activity change, negative = inhibition",Potency
CSc1ccccc1OCc1cc(C(=O)N[C@H]2CCCCNC2=O)no1,inconclusive: -6.18%,–
CC1CCc2c(sc3nc(SCC(=O)O)n(-c4ccccc4)c(=O)c23)C1 (centres undefined),inconclusive: 27.1%,–
O=[N+]([O-])c1ccc2nc(Cl)nc(-c3ccccc3)c2c1,inactive,–
N#Cc1ccc(-c2ccco2)nc1SCC(=O)c1ccc(Cl)cc1,inconclusive: 12.4%,–
C[C@@H](C(=O)N1CCN(C(=O)OC(C)(C)C)CC1)n1cc(CCCN=C(NC(=O)OC(C)(C)C)NC(=O)OC(C)(C)C)nn1,inconclusive: 4.46%,–
Cc1cc2c(c(=O)n1CCN(C)C)C(c1ccncc1)C(C#N)=C(N)O2 (centres undefined),inconclusive: -0.974%,–
CCOC(=O)Nc1ccc2nc(N3CCCCCC3)sc2c1,inconclusive: -10.3%,–
CCc1nc(SCC(=O)Nc2ccc(C(=O)O)cc2)n[nH]1,–,"inconclusive: 20.6 µM [falling, single point]"
COc1ccc(-c2nc3ccccc3o2)cc1NC(=O)c1ccc(Br)o1,inconclusive: 0.259%,–
Cc1cc(C(=O)NCCC(c2ccccc2)c2ccccc2)c(C)o1,inconclusive: 21.3%,–
CO/N=C/C(c1ccc(Cl)nc1)S(=O)(=O)c1ccccc1 (centres undefined),inconclusive: -0.408%,–
Cc1csc(NC(=O)CSc2[nH]c(=O)ncc2C)n1,inconclusive: 20.9%,–
FC(F)(F)c1nc(NCc2ccccc2)c2nnn(Cc3ccccc3)c2n1,inactive,–
COc1ccc(/C=C/C(=O)Nc2ccc(C)c(S(=O)(=O)N3CCOCC3)c2)cc1,inconclusive: -10.2%,–
Cc1ccccc1-n1nnnc1SC1CCOC1=O (centres undefined),inactive,–
Cc1ccc(/C=N/n2c(-c3ccco3)n[nH]c2=S)s1,–,"inconclusive: 9.2 µM [rising, partial curve, poor fit]"
Cc1ccc(S(=O)(=O)N2CC(O)CC2C(=O)O)cc1 (centres undefined),inactive,–
CCOC(=O)c1c(S(=O)(=O)N2CCC(C(=O)Nc3ccc(C)cc3C)CC2)c(C)n(C)c1C,inactive,–
COc1ccc(NC(=O)Nc2cccc([N+](=O)[O-])c2)cc1Cl,inconclusive: 7.74%,–
CCC(=O)NC(c1cccs1)c1cc(Br)c2cccnc2c1O (centres undefined),–,"inconclusive: 9.2 µM [falling, partial curve, poor fit]"
CC(=O)N1CCC(=NNC(=O)c2cccs2)CC1,–,"inconclusive: 29.1 µM [falling, single point]"
COc1cccc(CN(C(=O)Cc2c[nH]c3ccccc23)C(C(=O)NC2CCCCC2)c2cccs2)c1 (centres undefined),inconclusive: 7.27%,–
O=C1CN(C(=O)COC(=O)/C=C/c2ccc(F)cc2)c2ccccc2N1,inconclusive: 0.964%,–
CCN1C(Nc2ccccc2)=NC[C@@H]1C,inactive,–
OCc1ccccc1CNCc1ccccc1,inactive,–
O=C(c1cc(-c2ccncc2)nc2ccccc12)N1CCN(c2ccccn2)CC1,inactive,–
COc1ccc(-c2cn(-c3ccc(C)c(Cl)c3)c(=S)[nH]2)cc1OC,–,"inconclusive: 22.4 µM [falling, partial curve, poor fit]"

# As a short view, 2 of the compounds above:
Structure (SMILES),"activity change, negative = inhibition",Potency
COc1cccc(CN(C(=O)Cc2c[nH]c3ccccc23)C(C(=O)NC2CCCCC2)c2cccs2)c1 (centres undefined),inconclusive: 7.27%,–
O=C1CN(C(=O)COC(=O)/C=C/c2ccc(F)cc2)c2ccccc2N1,inconclusive: 0.964%,–

# Next records:

Structure (SMILES),"activity change, negative = inhibition",Potency
CCOC(=O)C1CCN(c2nc(-c3ccccc3)nc3c2oc2ccccc23)CC1,inactive,–
CCOc1ccccc1Nc1nc(-c2sc(NC(=O)c3cccc(Cl)c3)nc2C)cs1,–,"inconclusive: 5.62 µM [falling, partial curve, poor fit]"
Cc1ccc(-c2nnc(N3CCN(C(=O)Cn4c(=O)n(C)c5ccccc54)CC3)c3ccccc23)cc1,inactive,–
COc1ccc(OC)c(CNC(=O)c2cnc3c(C)cccn3c2=O)c1,inactive,–
O=C(/C=C/c1ccc([N+](=O)[O-])cc1)Nc1ncc([N+](=O)[O-])s1,inconclusive: 358%,–
COC(=O)[C@H](CCSC)NC(=O)c1cc2c(cn1)[nH]c1ccccc12,inconclusive: 3.12%,–
O=C(NC1CC2CCCC(C1)N2C(=O)Nc1ccc(F)cc1)c1ccccc1 (centres undefined),inactive,–
O=C(CCS(=O)(=O)c1cccc2nonc12)NCCc1ccccc1Cl,inconclusive: -10.1%,–
CN1CCCN(C(=O)c2cc(=O)[nH]c3ccccc23)c2nc3ccccc3nc21,inconclusive: 5.54%,–
Cn1c(SCC(=O)N2CCCc3ccccc32)ncc(C(=O)Nc2ccccc2)c1=O,–,"inconclusive: 31.6 µM [falling, single point]"
COc1cc(C(=O)NC(=S)Nc2ccc3c(c2)OCO3)cc(OC)c1OC,inactive,–
CC(C)OP(=O)(OC(C)C)C(Nc1ccccc1)c1ccccc1C(F)(F)F (centres undefined),inconclusive: -7.14%,–
CC(NC(=O)CCNC(=O)c1ccccc1Cl)c1ccc(-n2ccnc2)cc1 (centres undefined),inactive,–
COc1ccccc1C(=O)NNC(=O)C(=O)Nc1cccc(Cl)c1C,–,"inconclusive: 25.1 µM [falling, single point]"
C=CCC1(CC=C)CCCN1C(=O)Cn1nnnc1CN(C)C(C)C,inconclusive: -1.34%,–
CCOC(=O)c1sc(=NC(=O)CCS(=O)(=O)c2ccccc2)n(C)c1C,inactive,–
Cc1ccccc1OCCSc1nnc(C)n1-c1ccccc1,inconclusive: 19.8%,–
COC(=O)c1cccc(C23CC4(C2)[C@H](CN(C)[C@@H]4c2ccccc2)C3c2ccccc2)c1 (some centres undefined),inconclusive: 9.34%,–
Cc1ccc(NC(=O)COC(=O)c2nn(C)c(=O)c3ccccc23)cc1F,inactive,–
Cc1ccc(Cl)cc1N1CCN(C(=O)c2noc(C)c2[N+](=O)[O-])CC1,inconclusive: -5.66%,–
CC(=O)c1cccc(NC(=O)c2cc(-c3ccco3)on2)c1,inactive,–
CCN(CC)c1c([N+](=O)[O-])c(=O)sc2ccccc12,inconclusive: -17.3%,–
O=C(Nc1nc(-c2ccccc2)ns1)c1cccs1,–,"inconclusive: 20.6 µM [falling, partial curve]"
Cc1n[nH]c(=O)c2c(NC(=O)CSc3c(Cl)cccc3Cl)oc(C)c12,inconclusive: 6.66%,–
COC(=O)c1ccccc1-c1ccc(/C=N/Nc2nc(N3CCCC3)nc(N3CCCC3)n2)o1,inconclusive: -3.33%,–
